Where a chain is given by its changes, count along the chain named. No constants are given. Whether binding was seen depends on the method and setting. Some entries that bind do so weakly or less than the wild type. Where a sequence is shown, tags or fusion partners need not be part of it.
Tests used:
Test in all cases: two-hybrid; Gal4 system in mated PJ69-4 cells; quantitative GAL4 promoter-directed β-galactosidase expression; measured at 25 °C and 39 °C (heat stress); control: pBDC fusion with empty pADC
[1] = target: T1, human BD-UNC45-SM, wild type (human) (UniProt Q8IWX7)
T1 sequence: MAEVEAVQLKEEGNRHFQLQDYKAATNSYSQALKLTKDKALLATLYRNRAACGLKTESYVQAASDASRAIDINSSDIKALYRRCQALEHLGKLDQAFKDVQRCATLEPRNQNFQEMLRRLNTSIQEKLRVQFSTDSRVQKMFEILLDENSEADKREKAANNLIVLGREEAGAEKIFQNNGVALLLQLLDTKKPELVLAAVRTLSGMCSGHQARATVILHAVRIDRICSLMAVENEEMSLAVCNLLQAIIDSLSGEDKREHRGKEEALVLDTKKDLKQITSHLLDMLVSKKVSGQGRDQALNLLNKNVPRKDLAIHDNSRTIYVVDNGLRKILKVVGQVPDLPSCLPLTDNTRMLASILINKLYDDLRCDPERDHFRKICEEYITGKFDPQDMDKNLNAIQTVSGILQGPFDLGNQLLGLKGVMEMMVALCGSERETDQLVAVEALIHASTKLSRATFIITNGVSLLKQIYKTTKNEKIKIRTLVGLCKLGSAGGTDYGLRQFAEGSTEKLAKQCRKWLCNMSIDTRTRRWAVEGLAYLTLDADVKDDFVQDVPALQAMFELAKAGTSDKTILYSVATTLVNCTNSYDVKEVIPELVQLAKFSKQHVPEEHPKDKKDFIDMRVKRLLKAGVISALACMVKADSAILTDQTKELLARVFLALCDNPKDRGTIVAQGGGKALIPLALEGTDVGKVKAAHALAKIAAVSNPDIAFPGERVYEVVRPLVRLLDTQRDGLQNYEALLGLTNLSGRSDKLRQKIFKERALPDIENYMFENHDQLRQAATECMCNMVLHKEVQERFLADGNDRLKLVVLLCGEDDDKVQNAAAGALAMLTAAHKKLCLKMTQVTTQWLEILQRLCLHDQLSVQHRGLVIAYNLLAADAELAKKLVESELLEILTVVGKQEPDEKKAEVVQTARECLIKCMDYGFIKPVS

[2] = target: T2, She4-BD, wild type (S. cerevisiae) (UniProt P51534)
T2 sequence: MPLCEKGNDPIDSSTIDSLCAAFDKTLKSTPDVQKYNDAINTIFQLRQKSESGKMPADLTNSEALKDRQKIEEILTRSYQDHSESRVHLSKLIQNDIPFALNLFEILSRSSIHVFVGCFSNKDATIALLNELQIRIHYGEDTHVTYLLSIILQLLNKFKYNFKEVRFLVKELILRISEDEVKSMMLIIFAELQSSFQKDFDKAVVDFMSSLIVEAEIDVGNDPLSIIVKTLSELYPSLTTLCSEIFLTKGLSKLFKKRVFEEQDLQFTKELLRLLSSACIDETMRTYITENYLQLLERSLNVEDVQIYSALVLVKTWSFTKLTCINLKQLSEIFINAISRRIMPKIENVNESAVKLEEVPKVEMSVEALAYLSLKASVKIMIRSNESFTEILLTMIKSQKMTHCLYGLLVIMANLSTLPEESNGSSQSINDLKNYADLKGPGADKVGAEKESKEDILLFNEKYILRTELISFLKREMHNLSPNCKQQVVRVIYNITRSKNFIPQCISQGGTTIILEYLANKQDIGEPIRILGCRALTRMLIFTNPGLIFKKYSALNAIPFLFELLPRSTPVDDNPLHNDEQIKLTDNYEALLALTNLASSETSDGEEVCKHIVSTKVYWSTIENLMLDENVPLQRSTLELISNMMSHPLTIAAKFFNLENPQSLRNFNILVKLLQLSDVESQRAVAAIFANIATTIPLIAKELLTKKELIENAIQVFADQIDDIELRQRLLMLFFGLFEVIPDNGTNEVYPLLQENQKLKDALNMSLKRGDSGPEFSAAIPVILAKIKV

[3] = target: T3, human BD-UNC45-SM (S251E) (human) (UniProt Q8IWX7)
T3 sequence: T1 sequence with S251E

Measured: binding

B1: AD-Myo5 (protein, UniProt Q04439 1-1219)
chain: MAILKRGARKKVHQEPAKRSANIKKATFDSSKKKEVGVSDLTLLSKISDEAINENLKKRFLNATIYTYIGHVLISVNPFRDLGIYTDAVMNEYKGKNRLEVPPHVFAIAESMYYNMKSYNENQCVIISGESGAGKTEAAKRIMQYIAAASSTHTESIGKIKDMVLATNPLLESFGCAKTLRNNNSSRHGKYLEIKFNNQFEPCAGNITNYLLEKQRVVSQIKNERNFHIFYQFTKGASDAYRQTFGVQKPEQYVYTAAAGCISAETIDDLQDYQETLKAMRVIGLGQEEQDQIFRMLAAILWIGNVSFIENEEGNAQVRDTSVTDFVAYLLQIDSQLLIKSLVERIMETNHGMKRGSVYHVPLNIVQADAVRDALAKAIYNNLFDWIVSRVNKSLQAFPGAEKSIGILDIYGFEIFEHNSFEQICINYVNEKLQQIFIQLTLKSEQETYEREKIQWTPIKYFDNKVVCDLIEARRPPGIFAAMNDSVATAHADSNAADQAFAQRLNLFTTNPHFDLRSNKFVIKHYAGDVTYDIDGITDKNKDQLQKDLVELIGTTTNTFLATIFPDTVDRESKRRPPTAGDKIIKSANDLVETLSKAQPSYIRTIKPNETKSPNDYDDRQVLHQIKYLGLQENVRIRRAGFAYRQVFEKFVERFYLLSPHCSYAGDYTWQGDTLDAVKYILQDSSIPQQEYQLGVTSVFIKTPETLFALEHMRDRYWHNMAARIQRAWRRFLQRRIDAATKIQRTIRERKEGNKYEKLRDYGTKVLGGRKERRSMSLLGYRAFMGDYLSCNESKSKGAYIKRQVSIKEKVIFSIHGEALHTKFGRSAQRLKKTFLLTPTTLYIVGQTLVQNAMTYTQDYKIDVRNIQAVSLTNLQDDWVAIKLASSGQPDPLINTYFKTELITHLKRLNDKIQIKIGSAIEYQKKPGKLHSVKCQINESAPKYGDIYKSSTISVRRGNPPNSQVHKKPRKKSSISSGYHASSSQATRRPVSIAAAQHVPTAPASRHSKKPAPPPPGMQNKAATRRSVPNPASTLTASQSNARPSPPTAATRATPAATPAAAAMGSGRQANIPPPPPPPPPSSKPKEPMFEAAYDFPGSGSPSELPLKKGDVIYITREEPSGWSLGKLLDGSKEGWVPTAYMKPHSGNNNIPTPPQNRDVPKPVLNSVQHDNTSANVIPAAAQASLGDGLANALAARANKMRLESDDEEANEDEEEDDW
binds: all assays above

From article PMC5225067
